Screen size: about 340,000 compounds; about 4,500 (1.3%) were called active. Inconclusive means that the source gave no clear call. Such entries were picked first, then a sample of the others. The call rests on the fitted dose curve; in most records, active means well fitted inhibition curve with a large enough effect; inconclusive means small, poorly fitted or top-dose-only effect, or another doubt; inactive means no such curve, though single readings can be large or run the other way. Potencies beside an inconclusive call are fits to weak or partial responses and may not hold up.
Target: DNA polymerase beta (Homo sapiens) (UniProt P06746)
Test: qHTS Assay for Inhibitors of DNA Polymerase Beta
Conditions: Pol beta primer extension/strand displacement, fluorescence kinetic; activity change, negative = inhibition: at 114 µM (top of the series)
Procedure, shortened: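 Kinetic readout of DNA synthesis with strand displacement by Pol beta. Compound and 10 nM enzyme sit 15 min at room temperature; 50 nM substrate starts the reaction, read immediately and at 10 min.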
On the % scale 0 is the no-effect control and ±100 the full control effect; potency means the concentration at half of the fitted maximal effect.

SMILES | Potency | activity change, negative = inhibition
C=CCSc1nc2c(c(=O)[nH]c(=O)n2C)n1C/C=C(/C)Cl | inconclusive: 35.5 µM [inhibitor, single point] | 
CN(C)c1ccc(/C=C(/NC(=O)c2ccccc2)C(=O)N2CCCC2)cc1 | inactive | 
Cc1cc(OCc2cc(C(=O)NCC3(C)COC3)no2)cc(C)c1Cl | inconclusive: 3.16 µM [inhibitor, full curve] | 
COc1cc(SC)ccc1C(=O)Nc1ccc2c(c1)OCO2 | inconclusive: 100 µM [inhibitor, single point] | 
Cc1cccc(Cc2c(C)nc3nc(SCC(=O)NCc4ccco4)nn3c2C)c1 | inconclusive: 89.1 µM [inhibitor, single point] | 
Cc1ccc(/C=C2\Sc3ccccc3C2=O)s1 | inconclusive: 0.708 µM [inhibitor, full curve, poor fit] | 
CCOc1ccccc1NC(=O)C(C)N(c1ccccc1)S(C)(=O)=O (stereo not given) | inactive | 
Cc1ccc(NCCC(=O)c2ccc(Cl)cc2)cc1C | inactive | 
CC1CCN(C2=C(NS(=O)(=O)c3ccccc3)C(=O)c3ccccc3C2=O)CC1 | inconclusive: 112 µM [inhibitor, partial curve, poor fit] | 
COc1ccc(S(=O)(=O)c2cnc(SCC(=O)Nc3cc(F)ccc3C)[nH]c2=O)cc1Cl | active: 50.1 µM | 
CN(c1ccc(OCC(=O)OCC(=O)Nc2cccc([N+](=O)[O-])c2)cc1)S(=O)(=O)c1ccc(F)cc1 | inconclusive: 35.5 µM [inhibitor, single point] | 
Nc1nonc1-n1nnc(C(=O)c2ccccc2)c1-c1ccccc1 | inconclusive: 39.8 µM [inhibitor, partial curve, poor fit] | 
COC(=O)c1ccc(CC(=O)c2c(C)cc(O)cc2O)o1 | inconclusive: 14.1 µM [inhibitor, full curve, poor fit] | 
Cc1ccc(NC(=O)CN2C(=O)S/C(=C\c3ccc(-c4cccc(C(=O)O)c4C)o3)C2=O)cc1 | active: 100 µM | 
COc1ccccc1NC(=O)CSc1sc2c(O)cc(=O)[nH]c2c1C#N | active: 0.562 µM | 
CCCCCCCCCCCCCCCCCCNC(=O)OCC(COP(=O)([O-])OCC[n+]1ccsc1)OC (stereo not given) | inactive | 
CN(CC(=O)Nc1ccccc1C(F)(F)F)C(=O)CCc1nc2sc3c(c2c(=O)[nH]1)CCCC3 | inconclusive: 25.1 µM [inhibitor, full curve] | 
CCOc1ccccc1NC(=O)CCNS(=O)(=O)c1ccc2[nH]c(=O)oc2c1 | inconclusive: 39.8 µM [inhibitor, partial curve] | 
O=C(NC(N1CCOCC1)C(Cl)(Cl)Cl)c1ccco1 (stereo not given) | inactive | 
COC(=O)c1c(NC(=O)COC(=O)[C@@H](NS(=O)(=O)c2ccc(C)cc2)C(C)C)sc2c1CCC2 | inactive | 
COc1cccc(N2C(=O)C(c3ccccc3)=C(c3nc4ccccc4s3)C2NC(C)=O)c1 (stereo not given) | active: 89.1 µM | 
Cc1ccc(OCCn2cc(C=O)c3ccccc32)cc1 | inconclusive: 5.01 µM [inhibitor, full curve] | 
CC(Sc1oc(-c2cccs2)nc1S(=O)(=O)c1ccccc1)c1ccccc1 (stereo not given) | inactive | 
C/C(=N\Nc1ccc(Cl)c(C(=O)O)c1)c1cccc2ccccc12 | active: 28.2 µM | 

SMILES | Potency | activity change, negative = inhibition
OC1CCCN(Cc2c3ccccc3cc3ccccc23)C1 (stereo not given) | inconclusive: 28.2 µM [inhibitor, partial curve, poor fit] | 
CC1(C)CC(=O)C(/C=N/n2cnc3ccccc3c2=O)=C(O)C1 | inconclusive: 89.1 µM [inhibitor, single point] | 
CN(C)C(CNc1ccc(S(C)(=O)=O)cc1[N+](=O)[O-])c1ccccc1 (stereo not given) | inactive | 
CC(C)Oc1cccc(C(=O)C2CCCN(C(=O)c3ccoc3)C2)c1 (stereo not given) | inconclusive: 79.4 µM [inhibitor, single point] | 
Clc1ccc(CNCCCSc2ncccn2)cc1 | inconclusive: 89.1 µM [inhibitor, single point] | 
O=C(NCc1ccc(Cl)cc1)C(=O)NCC1OCCCN1S(=O)(=O)c1cccs1 (stereo not given) | inconclusive: 0.708 µM [inhibitor, full curve, poor fit] | 
CC(Oc1ccc(Cl)cc1Cl)c1ccnc(N)n1 (stereo not given) | inconclusive: 31.6 µM [inhibitor, partial curve] | 
Cc1sc2c3ccsc3ccc2[n+]1C | inactive | 
CNS(=O)(=O)c1cn(CC(=O)Nc2cccc(C(F)(F)F)c2)cc1S(=O)(=O)NC | inactive | 
CCCC(c1nnnn1CCOC)N1CCN(Cc2ccccc2)CC1 (stereo not given) | inconclusive: 89.1 µM [inhibitor, single point] | 
COc1ccc2c(c1)-c1nc(/N=C/c3ccc(O)c(OC)c3)sc1CC2 | inactive | 
O=C(CN1C(=O)C2CCCCN2c2ccc(C(=O)N3CCCC3)cc21)NCc1ccccc1F (stereo not given) | inactive | 
CC(=O)Nc1cccc(NC(=S)Nc2cccc(Cl)c2Cl)c1 | inconclusive: 89.1 µM [inhibitor, single point] | 
Cc1ccc(-c2c(C(=O)N/N=C/c3ccsc3)nnn2-c2nonc2N)cc1 |  | inconclusive: -32.1% [inhibitor]
Cc1cc(C)nc(/N=C2\NC(=O)CC(C(=O)O)N2c2ccc(Cl)cc2)n1 (stereo not given) | inconclusive: 89.1 µM [inhibitor, single point] | 
COc1ccc(C(=O)Nc2nnc(S(=O)(=O)N3CCN(c4ccc(C)cc4)CC3)s2)cc1 | inactive | 
Cc1ccc(C(=O)Nc2ccccc2C(=O)N2CCN(c3ccccc3)CC2)cc1 | inconclusive: 89.1 µM [inhibitor, single point] | 
CCOc1cc(C(c2c(C)[nH][nH]c2=O)c2c(C)[nH][nH]c2=O)cc(Cl)c1O | inactive | 
CNC(=S)N/N=C/c1ccc(-c2ccc(C(=O)O)cc2)o1 | inconclusive: 12.6 µM [inhibitor, full curve] | 
COc1cccc(C(=O)Nc2cc(-c3ccccc3)nn2-c2ccccc2)c1 | inconclusive: 89.1 µM [inhibitor, single point] | 
CCOc1ccc(-c2c(C)nn3c(-c4ccccc4)c(C(=O)NCCOC)cnc23)cc1OCC | inactive | 
CCOc1ccc(C(=O)Nc2ccc(C(=O)OCc3cc(=O)n4nc(CC)sc4n3)cc2)cc1 | inconclusive: 7.08 µM [inhibitor, full curve] | 
CCOC(=O)Cc1cnc(NC(=O)CSc2nc(C)cc(C)n2)s1 | inconclusive: 39.8 µM [inhibitor, single point] | 
Cc1cccc(C)c1OCC(=O)N1CCC(c2nc3ccccc3o2)CC1 | inconclusive: 35.5 µM [inhibitor, single point] | 

Laid out differently: 3 of the compounds above.
SMILES	Potency	activity change, negative = inhibition
CCOc1ccc(-c2c(C)nn3c(-c4ccccc4)c(C(=O)NCCOC)cnc23)cc1OCC	inactive	
CCOc1ccc(C(=O)Nc2ccc(C(=O)OCc3cc(=O)n4nc(CC)sc4n3)cc2)cc1	inconclusive: 7.08 µM [inhibitor, full curve]	
CCOC(=O)Cc1cnc(NC(=O)CSc2nc(C)cc(C)n2)s1	inconclusive: 39.8 µM [inhibitor, single point]	

(list continues)

SMILES | Potency | activity change, negative = inhibition
COc1ccc(S(=O)(=O)NC2CCCCC2)cc1-n1cnnn1 | inconclusive: 50.1 µM [inhibitor, single point] | 
Cc1cc(SCC(=O)Nc2ccc(Cl)cc2)nc2ccccc12 | inconclusive: 15.8 µM [inhibitor, partial curve] | 
Cc1cc(OCC(=O)NCc2ccccn2)c2c(C)c(Cc3ccccc3)c(=O)oc2c1 |  | inconclusive: -30.6% [inhibitor]
CCOc1ccc(NC(=O)Cn2cc(C(=O)c3ccc(OCC)cc3)c(=O)c3cc4c(cc32)OCCO4)cc1 | inconclusive: 1.41 µM [inhibitor, full curve] | 
COc1cccc(N2CCN(C3OC(=O)c4ccccc43)CC2)c1 (stereo not given) | inconclusive: 79.4 µM [inhibitor, single point] | 
Cc1ccc(CCNC(=O)c2cc3cc4cc(C)ccc4nc3s2)cc1 | inconclusive: 7.08 µM [inhibitor, full curve, poor fit] | 
COc1cccc(NC(=O)CN2C(=O)COc3ccc(S(=O)(=O)N4CCCCCC4)cc32)c1 | inconclusive: 89.1 µM [inhibitor, single point] | 
N#Cc1cc2c(nc1SCC(O)CS(=O)(=O)Cc1ccccc1)CCCC2 (stereo not given) | inactive | 
CCN(CC)c1ccc(NC(=O)c2ccc3c(c2)OCO3)c(C)c1 | inconclusive: 10 µM [inhibitor, partial curve] | 
CCOC(=O)c1cc(S(=O)(=O)Nc2ccc(OC(F)(F)F)cc2)[nH]n1 | inactive | 
O=C(CN(c1cccc(C(F)(F)F)c1)S(=O)(=O)c1ccc(Cl)c([N+](=O)[O-])c1)NCc1ccc(F)cc1 | inconclusive: 2.51 µM [inhibitor, full curve, poor fit] | 
Cn1c(C(=O)NCc2ccc(F)cc2)cc2cc(S(=O)(=O)N3CCCCC3)ccc21 | inactive | 
O=C(O)CNc1nc(-c2ccccc2)c2cc([N+](=O)[O-])ccc2n1 | inconclusive: 17.8 µM [inhibitor, full curve, poor fit] | 
O=C1C=C(Nc2cccc(O)c2)CC(c2ccco2)C1 (stereo not given) | inconclusive: 50.1 µM [inhibitor, partial curve] | 
Cc1ccc(N2C(=O)c3oc4cc(C)c(C)cc4c(=O)c3C2c2cccc(O)c2)nc1 (stereo not given) | inactive | 
CNC(=O)c1ccsc1NC(=O)c1sc2ccccc2c1Cl | active: 14.1 µM | 
Cc1ccccc1NC(=O)Cn1c(C)nc2ccc(NC(=O)C3CC3)cc2c1=O | inconclusive: 50.1 µM [inhibitor, partial curve] | 
O=C(NCc1ccccc1Cl)c1cnc(N2CCCCC2)c2ccccc12 | inactive | 
Cc1ccc(-n2nc(C(=O)NCCc3cccc(C)c3)c3c4ccccc4n(C)c3c2=O)cc1 | inconclusive: 11.2 µM [inhibitor, partial curve] | 
COc1cc(-c2nc3n(n2)C(c2ccc(F)cc2)C(C(N)=O)=C(C)N3)cc(OC)c1OC (stereo not given) | inactive | 
CC(=O)c1ccc(OCCCC(=O)NCC(c2ccco2)N(C)C)cc1 (stereo not given) | inactive | 
CCO[C@H]1OC(C(=O)NCc2ccccc2)=C[C@@H](C2CC2)[C@@H]1CCCO | inconclusive: 89.1 µM [inhibitor, single point] | 
